Test results as given in publication doi:10.64898/2025.12.11.692796.
Results are given in words; binding and its absence hold for the method and conditions named. In cells and extracts the contact can be indirect. Some entries that bind do so weakly or less than the wild type.

Protein sequences, listed by entry. Tags and fused reporters are not part of them.
UniProt Q14191: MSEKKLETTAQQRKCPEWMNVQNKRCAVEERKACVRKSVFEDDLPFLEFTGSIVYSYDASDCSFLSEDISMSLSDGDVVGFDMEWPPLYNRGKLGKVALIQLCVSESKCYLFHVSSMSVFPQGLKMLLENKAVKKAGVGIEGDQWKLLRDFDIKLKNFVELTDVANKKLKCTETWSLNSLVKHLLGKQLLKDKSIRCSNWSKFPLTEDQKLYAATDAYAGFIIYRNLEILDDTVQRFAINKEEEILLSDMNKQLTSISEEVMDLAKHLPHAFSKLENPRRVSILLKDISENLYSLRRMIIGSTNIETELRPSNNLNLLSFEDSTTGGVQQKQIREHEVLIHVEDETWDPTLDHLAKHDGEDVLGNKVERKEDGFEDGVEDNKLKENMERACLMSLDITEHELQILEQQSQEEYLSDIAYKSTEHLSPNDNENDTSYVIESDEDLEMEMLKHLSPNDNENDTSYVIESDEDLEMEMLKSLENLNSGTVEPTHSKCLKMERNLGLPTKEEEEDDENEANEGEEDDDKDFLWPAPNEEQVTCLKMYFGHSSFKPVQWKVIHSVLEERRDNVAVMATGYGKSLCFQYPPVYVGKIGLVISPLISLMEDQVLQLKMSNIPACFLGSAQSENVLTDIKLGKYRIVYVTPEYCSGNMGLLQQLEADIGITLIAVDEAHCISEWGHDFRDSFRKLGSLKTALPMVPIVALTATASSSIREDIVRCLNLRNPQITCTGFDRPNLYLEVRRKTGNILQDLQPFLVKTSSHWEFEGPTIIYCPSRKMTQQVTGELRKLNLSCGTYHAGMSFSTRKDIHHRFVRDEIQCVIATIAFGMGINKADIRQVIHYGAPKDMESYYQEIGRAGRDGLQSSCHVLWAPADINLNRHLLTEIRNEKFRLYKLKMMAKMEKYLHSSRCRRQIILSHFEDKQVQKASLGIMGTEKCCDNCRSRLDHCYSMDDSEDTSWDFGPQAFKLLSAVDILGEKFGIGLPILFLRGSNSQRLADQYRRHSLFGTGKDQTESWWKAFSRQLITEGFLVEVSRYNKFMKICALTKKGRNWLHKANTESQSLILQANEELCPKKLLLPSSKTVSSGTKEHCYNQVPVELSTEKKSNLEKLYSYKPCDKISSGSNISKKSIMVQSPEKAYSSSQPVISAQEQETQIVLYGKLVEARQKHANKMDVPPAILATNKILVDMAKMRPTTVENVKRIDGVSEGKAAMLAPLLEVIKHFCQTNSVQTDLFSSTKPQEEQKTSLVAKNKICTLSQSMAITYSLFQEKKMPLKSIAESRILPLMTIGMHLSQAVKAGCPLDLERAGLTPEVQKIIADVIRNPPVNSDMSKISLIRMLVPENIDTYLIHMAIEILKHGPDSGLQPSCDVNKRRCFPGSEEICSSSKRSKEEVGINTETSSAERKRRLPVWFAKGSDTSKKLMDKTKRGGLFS

Target: FLAG-tagged WRN (Werner RECQ helicase-exonuclease) (human) (UniProt Q14191)
Assay: co-IP

B1: U2AF35, a core subunit of the U2 auxiliary factor (U2AF) complex (protein, UniProt Q01081-1 1-240)
chain: MAEYLASIFGTEKDKVNCSFYFKIGACRHGDRCSRLHNKPTFSQTIALLNIYRNPQNSSQSADGLRCAVSDVEMQEHYDEFFEEVFTEMEEKYGEVEEMNVCDNLGDHLVGNVYVKFRREEDAEKAVIDLNNRWFNGQPIHAELSPVTDFREACCRQYEMGECTRGGFCNFMHLKPISRELRRELYGRRRKKHRSRSRSRERRSRSRDRGRGGGGGGGGGGGGRERDRRRSRDRERSGRF
For B1, the binding was “binds”.
